Measured data: PubChem BioAssay AID743121 (NCATS, 2013)
The deposit covers about 26,000 reagents; this is an unselected part. 167 of them (0.63%) were called active. 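Calls are per gene from RSA p-values that are not deposited; an individual active-marked siRNA can sensitise only weakly.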 Unmarked entries are inactive. Reagents against one gene are numbered here.

Screen: 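Genes whose silencing strengthens cell killing by camptothecin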 (primary screen)
System: MDA-MB-231 cells, a human breast cancer line
Reagents: single siRNA against human genes, 20 nM siRNA (0.8 pmol per well)
Duration: 120 h (drug added 48 h after transfection, read 72 h later)
Challenge: camptothecin 20 nM (about EC30) for 72 h; vehicle 0.1% DMSO in parallel plates
Read-out: 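Cell viability by ATP luminescence (CellTiter-Glo) as % of non-targeting siRNA wells, and the log2 ratio of viability without drug over viability with camptothecin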
Reading the numbers: log2 vehicle/camptothecin viability: higher = stronger sensitisation to camptothecin; viability with camptothecin and viability without drug: higher = more viable cells
Call rule: 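Active genes have an RSA gene-level p-value below 0.001, computed from the ratios of their separate siRNAs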

| log2 vehicle/camptothecin viability | viability with camptothecin (% of control) | viability without drug (% of control) | Gene | reagent |
| --- | --- | --- | --- | --- |
| -0.244 | 89.4 | 75.5 | CPLX1 | 1 |
| -0.299 | 39.3 | 31.9 | CPLX1 | 2 |
| -0.673 | 108 | 67.8 | CPLX1 | 3 |
| 0.143 | 27.1 | 29.9 | CPLX1 | 4 |
| -0.259 | 85.5 | 71.4 | MANF | 1 |
| 0.363 | 29.6 | 38 | MANF | 2 |
| 0.423 | 60 | 80.5 | MANF | 3 |
| -0.111 | 108 | 100 | MANF | 4 |
| -0.314 | 70.1 | 56.4 | NPY4R | 1 |
| -0.371 | 111 | 85.5 | NPY4R | 2 |
| -0.0525 | 74.4 | 71.7 | NPY4R | 3 |
| -0.197 | 93.9 | 81.9 | NPY4R | 4 |
| -0.117 | 87.3 | 80.5 | OIT3 | 1 |
| -0.49 | 68.9 | 49.1 | OIT3 | 2 |
| 0.519 | 75.3 | 108 | OIT3 | 3 |
| -0.146 | 71.1 | 64.2 | OIT3 | 4 |
| -0.0975 | 104 | 97.3 | FGF23 | 1 |
| -0.26 | 83.2 | 69.5 | FGF23 | 2 |
| 0.0163 | 33.7 | 34.1 | FGF23 | 3 |
| -0.223 | 72.4 | 62 | FGF23 | 4 |
| -0.0792 | 93.3 | 88.4 | UGT2B4 | 1 |
| -0.314 | 94.1 | 75.7 | UGT2B4 | 2 |
| -0.567 | 83.1 | 56.1 | UGT2B4 | 3 |
| -0.463 | 113 | 81.8 | UGT2B4 | 4 |
| -0.244 | 75.6 | 63.8 | KRT1 | 1 |
| -0.718 | 77.6 | 47.2 | KRT1 | 2 |
| -0.24 | 106 | 90.1 | KRT1 | 3 |
| -0.0958 | 74.6 | 69.8 | KRT1 | 4 |
| -0.196 | 113 | 98.9 | TOPORS | 1 |
| -0.316 | 82.3 | 66.1 | TOPORS | 2 |
| 0.019 | 48.1 | 48.7 | TOPORS | 3 |
| -0.399 | 60.4 | 45.8 | TOPORS | 4 |
| -0.26 | 73.8 | 61.7 | CYP4F22 | 1 |
| 0.741 | 20.5 | 34.3 | CYP4F22 | 2 |
| -0.274 | 45.9 | 37.9 | CYP4F22 | 3 |
| 0.0635 | 64.5 | 67.5 | LONRF2 | 1 |
| -0.075 | 79.4 | 75.4 | LONRF2 | 2 |
| -0.113 | 84.4 | 78.1 | LONRF2 | 3 |
| -0.465 | 72.4 | 52.4 | LONRF2 | 4 |
| 0.232 | 49.8 | 58.5 | PCK1 | 1 |
| 0.425 | 60 | 80.6 | PCK1 | 2 |
| -0.277 | 44.3 | 36.5 | PCK1 | 3 |
| -0.0912 | 103 | 96.4 | PCK1 | 4 |
| -0.083 | 95.9 | 90.5 | LCMT2 | 1 |
| 0.267 | 80.2 | 96.5 | LCMT2 | 2 |
| -0.569 | 61.7 | 41.6 | LCMT2 | 3 |
| -0.193 | 77.1 | 67.5 | LCMT2 | 4 |
| -0.277 | 87.3 | 72 | NSD2 | 1 |
| 0.371 | 12.6 | 16.3 | NSD2 | 2 |
| -0.226 | 21.7 | 18.6 | NSD2 | 3 |
| -0.388 | 88.2 | 67.4 | NSD2 | 4 |
| 0.549 | 28.1 | 41.1 | NSD2 | 5 |
| -0.549 | 74.5 | 50.9 | NSD2 | 6 |
| 0.589 | 52.2 | 78.5 | NSD2 | 7 |
| 0.318 | 29.5 | 36.8 | NSD2 | 8 |
| -0.34 | 86.2 | 68.1 | POLM | 1 |
| -0.326 | 57.7 | 46 | POLM | 2 |
| -0.195 | 72.6 | 63.4 | POLM | 3 |
| 0.0472 | 92.7 | 95.8 | CD58 | 1 |
| -0.552 | 87.5 | 59.7 | CD58 | 2 |
| -0.352 | 104 | 81.2 | CD58 | 3 |
| 0.0372 | 71.2 | 73 | TSSK6 | 1 |
| -0.0779 | 64 | 60.6 | TSSK6 | 2 |
| 0.349 | 39.1 | 49.8 | TSSK6 | 3 |
| -0.204 | 68.7 | 59.6 | TSSK6 | 4 |
| -0.0872 | 64.3 | 60.5 | SREBF2 | 1 |
| -0.00662 | 113 | 112 | SREBF2 | 2 |
| 0.0662 | 77.5 | 81.1 | SREBF2 | 3 |
| -0.375 | 117 | 90.6 | SREBF2 | 4 |

In a second layout: results already given.
log2 vehicle/camptothecin viability | viability with camptothecin (% of control) | viability without drug (% of control) | Gene | reagent
-0.075 | 79.4 | 75.4 | LONRF2 | 2
-0.113 | 84.4 | 78.1 | LONRF2 | 3
-0.465 | 72.4 | 52.4 | LONRF2 | 4
0.232 | 49.8 | 58.5 | PCK1 | 1
0.425 | 60 | 80.6 | PCK1 | 2
-0.277 | 44.3 | 36.5 | PCK1 | 3
-0.0912 | 103 | 96.4 | PCK1 | 4
-0.083 | 95.9 | 90.5 | LCMT2 | 1
0.267 | 80.2 | 96.5 | LCMT2 | 2
-0.569 | 61.7 | 41.6 | LCMT2 | 3
-0.193 | 77.1 | 67.5 | LCMT2 | 4
-0.277 | 87.3 | 72 | NSD2 | 1
